Common to all, as to test: co-IP; PDK2 co-immunoprecipitated with HA-tagged FOXK2 deletion constructs; cell lysate in IP buffer; protein A/G beads with antibody; overnight at 4 °C; western blotting; cell line not stated
On the technique in general: In western blotting, separated proteins are transferred to a membrane and probed.

Experiment [1] has as its target T1, FOXK2-Δ(54-128)-HA (human) (UniProt Q01167).
T1 sequence: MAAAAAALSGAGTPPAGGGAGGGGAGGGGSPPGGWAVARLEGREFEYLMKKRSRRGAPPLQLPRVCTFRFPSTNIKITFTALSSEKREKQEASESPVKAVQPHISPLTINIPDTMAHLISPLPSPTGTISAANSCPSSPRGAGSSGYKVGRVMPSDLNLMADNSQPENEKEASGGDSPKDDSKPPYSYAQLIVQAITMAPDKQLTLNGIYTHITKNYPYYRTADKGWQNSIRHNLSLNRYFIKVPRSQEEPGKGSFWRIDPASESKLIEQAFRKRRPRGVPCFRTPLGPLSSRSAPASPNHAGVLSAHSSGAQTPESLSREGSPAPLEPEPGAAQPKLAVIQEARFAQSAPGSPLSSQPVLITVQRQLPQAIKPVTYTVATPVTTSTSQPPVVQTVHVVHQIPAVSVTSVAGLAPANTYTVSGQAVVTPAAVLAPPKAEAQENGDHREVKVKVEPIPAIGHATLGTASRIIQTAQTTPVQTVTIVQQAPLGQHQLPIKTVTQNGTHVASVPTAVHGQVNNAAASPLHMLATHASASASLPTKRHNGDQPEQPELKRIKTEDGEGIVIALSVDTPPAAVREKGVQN

Experiment [2] has as its target T2, FOXK2-Δ(300-371)-HA (human) (UniProt Q01167).
T2 sequence: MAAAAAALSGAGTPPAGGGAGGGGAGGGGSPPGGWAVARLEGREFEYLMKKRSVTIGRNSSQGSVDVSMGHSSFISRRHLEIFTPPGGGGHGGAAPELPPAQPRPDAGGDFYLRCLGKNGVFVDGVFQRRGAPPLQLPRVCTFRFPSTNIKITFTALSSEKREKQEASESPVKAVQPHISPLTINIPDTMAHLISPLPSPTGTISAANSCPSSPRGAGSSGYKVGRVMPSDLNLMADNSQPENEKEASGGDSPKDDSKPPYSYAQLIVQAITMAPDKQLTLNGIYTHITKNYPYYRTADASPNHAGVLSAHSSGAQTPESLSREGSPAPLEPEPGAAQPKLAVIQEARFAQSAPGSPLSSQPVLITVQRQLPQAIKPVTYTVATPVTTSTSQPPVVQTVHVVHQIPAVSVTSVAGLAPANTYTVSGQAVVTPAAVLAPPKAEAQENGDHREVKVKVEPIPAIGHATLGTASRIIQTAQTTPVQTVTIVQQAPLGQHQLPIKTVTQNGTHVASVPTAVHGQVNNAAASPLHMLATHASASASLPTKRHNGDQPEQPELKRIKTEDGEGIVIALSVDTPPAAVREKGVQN

The target in experiment [3] is T3, FOXK2-Δ(129-171)-HA (human) (UniProt Q01167).
T3 sequence: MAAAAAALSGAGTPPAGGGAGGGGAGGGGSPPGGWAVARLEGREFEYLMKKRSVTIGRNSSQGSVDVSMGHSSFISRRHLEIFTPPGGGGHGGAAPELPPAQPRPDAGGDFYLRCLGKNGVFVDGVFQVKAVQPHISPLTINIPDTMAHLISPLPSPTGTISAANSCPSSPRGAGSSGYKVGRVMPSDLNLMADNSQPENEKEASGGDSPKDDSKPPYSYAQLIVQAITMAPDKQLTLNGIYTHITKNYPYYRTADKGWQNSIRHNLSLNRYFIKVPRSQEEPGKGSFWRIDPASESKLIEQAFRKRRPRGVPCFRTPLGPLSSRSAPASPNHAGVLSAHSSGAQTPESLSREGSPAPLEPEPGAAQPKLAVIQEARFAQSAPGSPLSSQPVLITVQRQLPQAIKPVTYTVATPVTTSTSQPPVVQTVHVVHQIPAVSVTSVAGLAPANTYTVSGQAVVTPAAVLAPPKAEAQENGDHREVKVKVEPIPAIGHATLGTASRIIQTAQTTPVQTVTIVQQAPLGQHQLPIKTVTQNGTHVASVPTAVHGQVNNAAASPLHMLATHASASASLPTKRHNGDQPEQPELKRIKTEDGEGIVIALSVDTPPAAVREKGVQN

These are yes or no findings as the source states them, for the method shown. Binding seen in cells or lysates may run through a third protein. For part of these data: Binding can be weak; no strength is given. Sequences can lack the tags named with a protein.

As for PDK2-Flag (human) (enzyme), the results for the binding entry in experiment [1], in experiment [2] and in experiment [3] were “no binding”, “binds” and “binds”, respectively.

The values above are taken from article PMC11196215.
